The target of assay [1] is T1, GFP-tagged WRN-X (XLF-like motif of WRN) (human).
T1 sequence: SKKLMDKTKRGGLFS
Nature of the assay: co-IP; GFP-tagged proteins recovered on GFP-TRAP beads from transfected HEK293T extract (25 mM Tris-HCl pH 7.5, 150 mM NaCl, 10% glycerol, 0.5% Triton X-100, 1 mM DTT), 1 h at 4 °C; immunoblot for GFP, Ku80 and DNA–PKcs; Ku quantified by ImageJ relative to wild-type WRN. A general note: A western blot detects proteins with antibodies after separation by electrophoresis.

Protein sequences, listed by entry. Tags and fused reporters are not part of them.
UniProt P13010: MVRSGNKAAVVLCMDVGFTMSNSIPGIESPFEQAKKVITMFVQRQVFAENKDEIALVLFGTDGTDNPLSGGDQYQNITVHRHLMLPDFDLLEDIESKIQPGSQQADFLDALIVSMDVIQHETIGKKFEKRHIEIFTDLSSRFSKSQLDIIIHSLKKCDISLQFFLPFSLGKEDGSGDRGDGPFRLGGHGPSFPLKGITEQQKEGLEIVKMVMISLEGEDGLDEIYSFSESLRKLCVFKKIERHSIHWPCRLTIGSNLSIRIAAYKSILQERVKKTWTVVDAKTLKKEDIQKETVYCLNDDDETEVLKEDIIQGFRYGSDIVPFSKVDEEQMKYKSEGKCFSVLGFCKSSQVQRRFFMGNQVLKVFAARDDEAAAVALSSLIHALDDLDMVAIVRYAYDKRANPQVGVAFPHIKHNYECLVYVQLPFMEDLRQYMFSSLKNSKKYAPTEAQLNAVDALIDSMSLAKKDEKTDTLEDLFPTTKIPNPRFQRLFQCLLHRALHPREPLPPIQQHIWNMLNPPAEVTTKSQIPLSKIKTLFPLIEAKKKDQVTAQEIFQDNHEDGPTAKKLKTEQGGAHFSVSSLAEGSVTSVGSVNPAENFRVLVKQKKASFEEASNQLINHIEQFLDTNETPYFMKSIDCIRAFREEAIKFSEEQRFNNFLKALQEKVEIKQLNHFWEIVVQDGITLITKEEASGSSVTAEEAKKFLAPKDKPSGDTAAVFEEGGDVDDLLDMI

The target of assay [2] is T2, GFP-tagged WRN-cA (C-terminal KBM of WRN) (human).
T2 sequence: TSSAERKRRLPVWFAK
Described as above.

Results are given in words; binding and its absence hold for the method and conditions named. Binding seen in cells or lysates may run through a third protein. Some binding calls cover weakened binding; strength is not graded here. Tags and fused reporters may be left off the sequences shown.

Take “Ku80, endogenous (from UniProt P13010 1-732)”: the binding result was “no binding” in assay [1] and “binds” in assay [2].

The record behind these values is paper PMC4831024.
